The list shows a part of the results. These are raw signals, not scaled to a control.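 Primary screen: polymyxin B was added at a level permeabilizing Salmonella outer membranes while sparing inner membranes. DMSO wells, both with and without polymyxin B, established maximum growth. Plate-to-plate variation meant each plate was ranked on its own, and the lowest-OD600 compounds were selected as hits.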
Tested on: Salmonella enterica serovar Typhimurium SL1344
Assay: bacterial growth OD600 after 18 h with compound and polymyxin B; higher = more bacterial growth (less inhibition)
Details: 50 µM, Mueller-Hinton broth

SMILES | bacterial growth OD600 (polymyxin B 0.75 µg/mL) | bacterial growth OD600 (polymyxin B 1 µg/mL)
O=C(c1coc(COc2ccc(F)cc2Cl)n1)N1CCCCO1 | 0.758 | –
CCn1ccnc1CN(C)CC1CCN(CCc2ccc(Cl)cc2)CC1 | – | 0.752
CN(Cc1ccccc1)C(=O)CCC1CCN(S(=O)(=O)c2ccsc2)CC1 | 0.938 | –
CN(CCc1ccccc1)C1CCCN(C(=O)c2ccccc2Cl)C1 (configuration not stated) | – | 0.812
CC(=O)N1CCN(c2ncccc2CNC(=O)c2cc(CC(C)C)n[nH]2)CC1 | 0.962 | –
O=C(c1ccco1)N1CCCC(CCc2ccccc2)C1 (configuration not stated) | 0.005 | –
COCCCN1C(=O)CC(CC(=O)N(C)Cc2n[nH]c3c2CCCCC3)(c2ccccc2OC)C1=O (configuration not stated) | 0.946 | –
Cc1cccc(NC(=O)CCC2CCN(S(=O)(=O)c3cccc(F)c3)CC2)c1 | – | 0.928
CN(C(=O)CC(c1cccc(O)c1)c1ccccc1O)C1CCOCC1 (configuration not stated) | – | 1.22
CN(CCc1ccccc1)C1(C(=O)N2CCNC(=O)C2)Cc2ccccc2C1 | – | 1.02
CC(C)CN1CCC(C2CCN(Cc3cc(C#CCO)cs3)C2)CC1 (configuration not stated) | 0.706 | –
O=C(CCc1cnccn1)N1CCCC(CCc2ccccc2C(F)(F)F)C1 (configuration not stated) | 0.826 | –
Cc1nccn1CCN(C)C(=O)C1(N2C[C@@H](C)O[C@@H](C)C2)Cc2ccccc2C1 | – | 1.1
CSCCC(=O)NCc1cccnc1N(C)C1CCCCC1 | – | 0.91
COCc1ccc(C(=O)N2CCCC(CCC(=O)Nc3cc(OC)cc(OC)c3)C2)o1 (configuration not stated) | – | 0.909
C[C@@H]1CN(C(=O)c2nc3sccn3c2CNCCn2ccc3ccccc32)C[C@H](C)O1 | – | 1.04

Some values from the list.
bacterial growth OD600 (polymyxin B 1 µg/mL), CN(C(=O)CC(c1cccc(O)c1)c1ccccc1O)C1CCOCC1 (configuration not stated) reads 1.22
bacterial growth OD600 (polymyxin B 1 µg/mL), Cc1cccc(NC(=O)CCC2CCN(S(=O)(=O)c3cccc(F)c3)CC2)c1 reads 0.928

The results go on.

SMILES | bacterial growth OD600 (polymyxin B 0.75 µg/mL) | bacterial growth OD600 (polymyxin B 1 µg/mL)
Cc1ccccc1-c1cnnc(NCCc2ccccc2Cl)n1 | 0.131 | –
COC(=O)CN(C)C(=O)c1coc(COc2cccc(C(F)(F)F)c2)n1 | 0.918 | –
O=C(c1ccccc1OC1CCN(Cc2ccc(O)c(Cl)c2)CC1)N1CCCCC1 | – | 1.23
COCCC1CCCCN1C(=O)c1cc(COc2ccc(F)cc2F)on1 (configuration not stated) | 0.631 | –
O=C(NCc1cccs1)C1CC12CCN(C(=O)C1=CCCCC1)CC2 (configuration not stated) | 0.885 | –
CSc1ccc(C(=O)N2CCC(C(Cc3ccc(F)cc3F)N(C)C(=O)C3CC3)CC2)cc1 (configuration not stated) | 0 | –
O=C(c1ccc(-c2ccccc2)cc1)C1CCCN(C(=O)c2cccnc2)C1 (configuration not stated) | – | 0.012
CN1N=C(C(=O)N2CCCC(CNC(=O)c3ccc(-c4ccccc4)cc3)C2)CCC1=O (configuration not stated) | – | 0.977
CN(Cc1ccccn1)C(=O)CC(c1cccc(O)c1)c1ccccc1Cl (configuration not stated) | – | 0.74
COCCN(CC1CCN(Cc2ccccc2F)CC1)C(=O)COC | – | 1.13
CCOC(=O)C1(Cc2ccccc2C)CCCN(Cc2ccc(COC)o2)C1 (configuration not stated) | – | 0.003
CC(C)Cc1ccc(CN2CCCC(NC(=O)CCN3CCCC3=O)C2)cc1 (configuration not stated) | – | 0.853
COc1ccccc1OCC(=O)NCC1CCCN(Cc2cnn(C(C)C)c2)C1 (configuration not stated) | – | 0.874
CCOC(=O)N1CCN(C(=O)c2cn(Cc3ccccc3C(F)(F)F)nn2)CC1 | – | 0.784
COc1ccc(CC2(CCC(=O)N3CCCC(C)C3)CCC(=O)N2)c(F)c1 (configuration not stated) | 0.81 | –
Cc1c(-c2ccccc2F)[nH]c2ccc(CNCc3cnn(C)c3)cc12 | 0.635 | –

Source: the supplement of paper PMC12889115
